Laboratory results: patent US12479843B2, “Spiro ring-containing quinazoline compounds” (WIGEN BIOMEDICINE TECHNOLOGY (SHANGHAI) CO., LTD., priority 2019, dated 2025)
For at least one compound, name, drawing or mass did not settle the structure.

Tested on: phosphorylated ERK (pERK) level in H358 cells
Assay: pERK level assay by western blot in H358 cells
Format: cell-based
Conditions: overnight incubation, same concentration, FIG. 1
Procedure: H358 cells were plated on to a 24-well plate at 2×10^5 cells/well. Serially diluted compounds including AMG510, MRTX849, compound 142 and compound 171 were added. After overnight incubation, cells were lysed, and proteins were quantified and subjected to gel electrophoresis.

## C=CC(=O)N1CC2(CCN(c3nc(N4CC(N5CCCC5)C4)nc4c(OCC(F)(F)F)c(-c5c(C)ccc6[nH]ncc56)c(C5CC5)cc34)CC2)C1 [Compound 171]
  inhibition of the phosphorylated ERK (pERK) level in cells compared with AMG510 and MRTX849: stronger inhibition
